These are yes or no findings as the source states them, for the method shown. Binding seen in cells or lysates may run through a third protein. Here binding means that the protein was enriched with, or labelled near, the bait; the list need not be complete. One block for each molecule: values may come before it.
Biological target: AKAP11-eGFP fusion protein (UniProt Q9UKA4)
Assay: affinity purification with mass spectrometry; anti-GFP affinity purification of AKAP11-eGFP from AKAP11-eGFP; Syn-cre mouse brain lysate against control; co-purified proteins by DIA mass spectrometry

Chains of the proteins cited; added tags and fusions are not shown.
UniProt Q9UKA4: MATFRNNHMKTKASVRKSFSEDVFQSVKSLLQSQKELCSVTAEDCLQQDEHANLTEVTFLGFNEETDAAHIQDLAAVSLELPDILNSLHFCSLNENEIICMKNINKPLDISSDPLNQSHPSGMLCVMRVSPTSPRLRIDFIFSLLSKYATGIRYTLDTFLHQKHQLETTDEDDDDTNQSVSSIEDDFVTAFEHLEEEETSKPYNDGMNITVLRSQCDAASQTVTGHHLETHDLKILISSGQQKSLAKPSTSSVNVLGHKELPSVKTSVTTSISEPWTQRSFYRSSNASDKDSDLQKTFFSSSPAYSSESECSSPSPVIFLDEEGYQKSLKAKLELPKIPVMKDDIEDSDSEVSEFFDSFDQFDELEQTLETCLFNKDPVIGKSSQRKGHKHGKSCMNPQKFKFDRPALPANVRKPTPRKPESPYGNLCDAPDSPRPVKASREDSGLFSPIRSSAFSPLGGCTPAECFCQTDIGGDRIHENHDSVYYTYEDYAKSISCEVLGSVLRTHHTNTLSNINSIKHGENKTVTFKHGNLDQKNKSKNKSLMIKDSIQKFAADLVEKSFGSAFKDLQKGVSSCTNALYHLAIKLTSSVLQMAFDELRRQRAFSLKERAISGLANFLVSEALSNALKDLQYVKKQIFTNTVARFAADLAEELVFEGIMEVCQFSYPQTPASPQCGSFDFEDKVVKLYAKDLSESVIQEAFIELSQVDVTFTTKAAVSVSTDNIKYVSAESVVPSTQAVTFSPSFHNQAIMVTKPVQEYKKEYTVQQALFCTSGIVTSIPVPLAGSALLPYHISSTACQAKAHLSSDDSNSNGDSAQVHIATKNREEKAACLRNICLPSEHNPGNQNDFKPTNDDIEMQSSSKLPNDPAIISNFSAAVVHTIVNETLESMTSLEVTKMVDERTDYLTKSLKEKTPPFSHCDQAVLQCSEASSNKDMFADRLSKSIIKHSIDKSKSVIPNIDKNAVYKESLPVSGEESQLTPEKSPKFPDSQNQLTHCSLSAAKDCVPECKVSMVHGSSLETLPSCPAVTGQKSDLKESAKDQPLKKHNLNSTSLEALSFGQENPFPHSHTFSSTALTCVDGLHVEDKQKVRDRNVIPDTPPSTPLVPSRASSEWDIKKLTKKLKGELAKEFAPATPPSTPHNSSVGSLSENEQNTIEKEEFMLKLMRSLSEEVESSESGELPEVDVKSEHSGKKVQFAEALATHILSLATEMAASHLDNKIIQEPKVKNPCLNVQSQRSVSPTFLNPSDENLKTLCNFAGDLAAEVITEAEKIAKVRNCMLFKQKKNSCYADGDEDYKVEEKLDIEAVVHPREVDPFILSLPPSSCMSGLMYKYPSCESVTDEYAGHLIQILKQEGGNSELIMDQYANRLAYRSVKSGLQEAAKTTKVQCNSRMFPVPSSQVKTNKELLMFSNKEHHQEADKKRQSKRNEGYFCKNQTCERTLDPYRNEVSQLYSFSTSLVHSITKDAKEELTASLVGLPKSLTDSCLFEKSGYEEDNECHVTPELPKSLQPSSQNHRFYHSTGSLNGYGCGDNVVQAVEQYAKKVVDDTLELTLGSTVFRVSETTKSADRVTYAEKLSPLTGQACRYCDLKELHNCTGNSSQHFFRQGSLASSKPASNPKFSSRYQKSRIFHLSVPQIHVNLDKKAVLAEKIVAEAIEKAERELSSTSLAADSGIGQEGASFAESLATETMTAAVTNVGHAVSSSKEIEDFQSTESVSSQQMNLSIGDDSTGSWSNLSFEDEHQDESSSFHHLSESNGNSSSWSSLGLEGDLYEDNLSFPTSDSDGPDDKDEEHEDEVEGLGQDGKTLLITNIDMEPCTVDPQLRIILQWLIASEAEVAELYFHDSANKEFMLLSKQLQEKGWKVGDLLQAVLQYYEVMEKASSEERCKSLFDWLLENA
UniProt Q6NSW3: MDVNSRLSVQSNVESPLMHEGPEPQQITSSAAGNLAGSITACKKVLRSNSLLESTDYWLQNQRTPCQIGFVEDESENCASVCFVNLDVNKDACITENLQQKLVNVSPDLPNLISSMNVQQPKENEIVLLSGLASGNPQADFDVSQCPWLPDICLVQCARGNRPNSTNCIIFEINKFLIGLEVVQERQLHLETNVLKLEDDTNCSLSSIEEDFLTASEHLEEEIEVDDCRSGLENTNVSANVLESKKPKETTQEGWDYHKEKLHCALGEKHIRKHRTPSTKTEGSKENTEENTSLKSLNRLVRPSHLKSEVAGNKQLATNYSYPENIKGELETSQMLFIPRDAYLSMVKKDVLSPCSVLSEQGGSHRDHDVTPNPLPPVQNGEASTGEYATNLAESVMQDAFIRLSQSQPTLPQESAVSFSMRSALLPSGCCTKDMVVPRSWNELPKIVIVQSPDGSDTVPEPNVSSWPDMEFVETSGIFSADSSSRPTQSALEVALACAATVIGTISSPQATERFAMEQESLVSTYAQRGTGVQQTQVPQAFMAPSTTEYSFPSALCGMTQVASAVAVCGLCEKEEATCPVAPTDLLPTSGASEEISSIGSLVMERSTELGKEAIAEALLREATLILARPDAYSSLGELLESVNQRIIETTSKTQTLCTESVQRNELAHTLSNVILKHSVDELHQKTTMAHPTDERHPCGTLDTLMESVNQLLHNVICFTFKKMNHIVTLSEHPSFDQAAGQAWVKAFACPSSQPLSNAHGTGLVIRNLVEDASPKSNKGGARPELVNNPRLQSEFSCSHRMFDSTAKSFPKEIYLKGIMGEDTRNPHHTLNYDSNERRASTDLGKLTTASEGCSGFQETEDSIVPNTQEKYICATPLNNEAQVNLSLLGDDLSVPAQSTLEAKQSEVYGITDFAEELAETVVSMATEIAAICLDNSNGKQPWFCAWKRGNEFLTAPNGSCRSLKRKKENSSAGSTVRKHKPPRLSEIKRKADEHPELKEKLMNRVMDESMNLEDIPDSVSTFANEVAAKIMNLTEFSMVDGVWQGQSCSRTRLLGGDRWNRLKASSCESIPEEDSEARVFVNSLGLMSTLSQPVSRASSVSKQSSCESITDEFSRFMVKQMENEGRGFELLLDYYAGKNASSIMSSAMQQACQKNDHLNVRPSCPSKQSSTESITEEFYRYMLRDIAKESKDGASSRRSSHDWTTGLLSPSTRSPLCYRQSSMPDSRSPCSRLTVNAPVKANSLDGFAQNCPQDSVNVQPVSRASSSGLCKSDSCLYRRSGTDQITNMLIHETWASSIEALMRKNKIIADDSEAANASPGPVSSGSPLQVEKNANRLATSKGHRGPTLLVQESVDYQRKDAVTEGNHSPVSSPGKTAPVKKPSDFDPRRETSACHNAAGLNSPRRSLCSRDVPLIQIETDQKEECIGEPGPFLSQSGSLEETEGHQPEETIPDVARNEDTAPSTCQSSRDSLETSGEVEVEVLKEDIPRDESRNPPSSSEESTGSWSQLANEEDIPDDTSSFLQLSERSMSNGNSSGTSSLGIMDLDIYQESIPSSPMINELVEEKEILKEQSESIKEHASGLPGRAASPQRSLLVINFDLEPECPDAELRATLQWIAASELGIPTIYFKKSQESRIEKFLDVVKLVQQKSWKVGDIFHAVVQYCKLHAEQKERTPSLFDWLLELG
UniProt Q9DBC7: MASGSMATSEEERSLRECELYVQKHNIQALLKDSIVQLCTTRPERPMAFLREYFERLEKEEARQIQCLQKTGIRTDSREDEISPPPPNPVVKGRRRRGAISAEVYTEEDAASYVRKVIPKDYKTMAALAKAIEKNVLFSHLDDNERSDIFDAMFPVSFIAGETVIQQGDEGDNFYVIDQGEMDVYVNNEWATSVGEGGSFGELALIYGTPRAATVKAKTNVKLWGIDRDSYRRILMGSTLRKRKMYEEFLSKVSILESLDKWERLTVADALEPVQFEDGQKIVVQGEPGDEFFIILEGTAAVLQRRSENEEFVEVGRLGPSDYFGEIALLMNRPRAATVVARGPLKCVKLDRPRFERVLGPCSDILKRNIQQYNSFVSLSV
UniProt P12849: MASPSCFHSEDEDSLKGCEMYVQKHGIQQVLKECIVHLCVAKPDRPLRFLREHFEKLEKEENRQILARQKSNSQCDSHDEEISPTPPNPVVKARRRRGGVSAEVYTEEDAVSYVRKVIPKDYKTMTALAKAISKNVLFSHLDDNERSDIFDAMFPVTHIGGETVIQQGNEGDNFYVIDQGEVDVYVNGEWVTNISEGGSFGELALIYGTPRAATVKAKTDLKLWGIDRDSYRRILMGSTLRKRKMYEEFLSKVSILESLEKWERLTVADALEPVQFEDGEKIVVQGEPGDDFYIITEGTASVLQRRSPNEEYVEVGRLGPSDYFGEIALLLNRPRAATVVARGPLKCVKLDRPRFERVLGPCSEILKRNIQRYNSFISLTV

- binding: binds
Molecule: SPHKAP (from UniProt Q6NSW3 1-1687)

- binding: binds
B1: VAPA (protein, UniProt Q9WV55 1-249)
chain: MASASGAMAKHEQILVLDPPSDLKFKGPFTDVVTTNLKLQNPSDRKVCFKVKTTAPRRYCVRPNSGIIDPGSIVTVSVMLQPFDYDPNEKSKHKFMVQTIFAPPNISDMEAVWKEAKPDELMDSKLRCVFEMPNENDKLNDMEPSKAVPLNASKQDGPLPKPHSVSLNDTETRKLMEECKRLQGEMMKLSEENRHLRDEGLRLRKVAHSDKPGSTSAVSFRDNVTSPLPSLLVVIAAIFIGFFLGKFIL

Continued, molecule first:

Molecule: DYRK1A (from UniProt Q61214 1-763)
- binding: binds

Molecule: PKA regulatory subunit RIα (from UniProt Q9DBC7 1-381)
- binding: binds

Molecule: PKA regulatory subunit RIβ (from UniProt P12849 1-381)
- binding: binds

Reference: publication PMC11952666
